Results reported in paper PMC10366545, “Phosphoregulation of DNA repair via the Rad51 auxiliary factor Swi5–Sfr1” (The Journal of Biological Chemistry, 2023).
Where a chain is given by its changes, count along the chain named. No constants are given. Whether binding was seen depends on the method and setting. Some entries that bind do so weakly or less than the wild type. For some assays here: Sequences can lack the tags named with a protein.

What was measured:
[1] = target: T1, Sfr1 (wildtype, N-terminally hexahistidine-tagged) (S. pombe) (UniProt Q9USV1); assay: SEC; His6-Sfr1 co-expressed with Swi5 in E. coli and purified together as a complex; 16/60 Superdex 200 pg in H buffer (25 mM Hepes-KOH pH 7.5, 10% glycerol, 0.5 mM TCEP) with 200 mM KCl, 4 °C; both purified
T1 sequence: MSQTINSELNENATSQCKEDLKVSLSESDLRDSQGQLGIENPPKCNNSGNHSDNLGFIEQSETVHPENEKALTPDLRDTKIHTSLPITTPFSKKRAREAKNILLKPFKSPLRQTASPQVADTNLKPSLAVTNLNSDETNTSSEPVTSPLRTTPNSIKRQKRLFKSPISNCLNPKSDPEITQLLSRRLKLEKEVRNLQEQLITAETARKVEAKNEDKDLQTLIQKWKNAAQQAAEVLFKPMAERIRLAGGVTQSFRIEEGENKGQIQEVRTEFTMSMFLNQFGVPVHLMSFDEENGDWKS

[2] = target: T2, Sfr1 nonphosphorylatable mutant (Sfr1 chain of S5S1-NON) (S. pombe) (UniProt Q9USV1); assay: as above
T2 sequence: T1 sequence with S24A, T73A, S109A, S116A, S165A

[3] = target: T3, Sfr1 phosphomimetic mutant (Sfr1 chain of S5S1-PM) (S. pombe) (UniProt Q9USV1); assay: as above
T3 sequence: T1 sequence with S24D, T73D, S109D, S116D, S165D

Fbh1 (S. pombe) = target: T4, Fbh1 (S. pombe) (UniProt Q9USU3); assay: co-purification; Fbh1 purified in complex with Skp1; SDS-PAGE and Coomassie staining (Fig. S1B); how it was purified is not told
T4 sequence: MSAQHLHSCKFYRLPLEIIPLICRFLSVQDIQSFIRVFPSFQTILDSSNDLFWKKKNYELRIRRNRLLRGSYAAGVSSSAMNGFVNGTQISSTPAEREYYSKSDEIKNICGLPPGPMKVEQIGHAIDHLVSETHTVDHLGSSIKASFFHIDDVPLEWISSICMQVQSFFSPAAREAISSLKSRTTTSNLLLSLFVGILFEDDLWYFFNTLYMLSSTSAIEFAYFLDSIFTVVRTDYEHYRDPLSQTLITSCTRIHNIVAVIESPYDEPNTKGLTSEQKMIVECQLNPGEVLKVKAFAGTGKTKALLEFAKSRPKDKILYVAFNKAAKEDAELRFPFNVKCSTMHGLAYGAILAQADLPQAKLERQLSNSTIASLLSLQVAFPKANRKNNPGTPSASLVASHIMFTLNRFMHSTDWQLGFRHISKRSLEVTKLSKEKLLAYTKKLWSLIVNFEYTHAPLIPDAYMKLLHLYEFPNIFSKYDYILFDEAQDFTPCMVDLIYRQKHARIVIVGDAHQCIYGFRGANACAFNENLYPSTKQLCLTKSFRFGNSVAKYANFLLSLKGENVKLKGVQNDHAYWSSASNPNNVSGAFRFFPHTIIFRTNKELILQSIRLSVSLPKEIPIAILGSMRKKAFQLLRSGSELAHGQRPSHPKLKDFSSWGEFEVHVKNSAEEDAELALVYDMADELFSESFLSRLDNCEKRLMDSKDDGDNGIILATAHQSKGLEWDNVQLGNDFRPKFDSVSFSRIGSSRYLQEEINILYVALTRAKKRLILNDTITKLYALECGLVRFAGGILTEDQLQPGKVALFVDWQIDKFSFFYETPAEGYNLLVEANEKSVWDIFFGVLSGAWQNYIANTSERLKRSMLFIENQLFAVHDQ

[4] = target: T5, Swi5–Sfr1 phosphomimetic mutant complex (S5S1-PM) (S. pombe) (UniProt Q9USV1+Q9UUB7); assay: pull-down; in solution; nickel resin holds hexahistidine-tagged S5S1; 500 nM each protein; 30 mM Tris-Cl 7.5, 100 mM KCl, 5 mM MgCl2, 1 mM ATP, 0.25 mM TCEP, 5% glycerol, 0.05% Tween-20; 30 °C 15 min, then resin 1 h at 4 °C; SDS-PAGE, Coomassie; both purified
T5 sequence 1: T1 sequence with S24D, T73D, S109D, S116D, S165D
T5 sequence 2: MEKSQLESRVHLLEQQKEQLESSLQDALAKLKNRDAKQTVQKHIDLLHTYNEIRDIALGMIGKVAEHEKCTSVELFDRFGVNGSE

B1: Swi5 (protein, UniProt Q9UUB7 1-85)
chain: T5 sequence 2
- binding [1]: binds
- binding [2]: binds
- binding [3]: binds

B2: Skp1 (protein, UniProt Q9Y709 1-161)
chain: MSKIKLISSDNEEFVVDQLIAERSMLIKNMLEDVGEINVPIPLPNVSSNVLRKVLEWCEHHKNDLYSGTEEESDIRLKKSTDIDEWDRKFMAVDQEMLFEIVLASNYLDIKPLLDTGCKTVANMIRGKSPEDIRKTFNIPNDFTPEEEEQIRKENEWAEDR
- binding (Fbh1 (S. pombe)): binds

B3: Rad51 (natural protein, S. pombe, UniProt P36601 1-365, looked up)
chain: MADTEVEMQVSAADTNNNENGQAQSNYEYDVNVQDEEDEAAAGPMPLQMLEGNGITASDIKKIHEAGYYTVESIAYTPKRQLLLIKGISEAKADKLLGEASKLVPMGFTTATEYHIRRSELITITTGSKQLDTLLQGGVETGSITELFGEFRTGKSQICHTLAVTCQLPIDMGGGEGKCLYIDTEGTFRPVRLLAVADRYGLNGEEVLDNVAYARAYNADHQLELLQQAANMMSESRFSLLVVDSCTALYRTDFSGRGELSARQMHLARFMRTLQRLADEFGIAVVITNQVVAQVDGISFNPDPKKPIGGNILAHSSTTRLSLRKGRGEQRICKIYDSPCLPESEAIFAINSDGVGDPKEIIAPV
notes: Rad51 recombinase, S. pombe; also called S. pombe Rad51; Rad51-ssDNA filament
- binding [4]: binds weakly
